According to patent US9572820B2, “Methods of treating autophagy-associated disorders and related pharmaceutical compositions, diagnostics, screening techniques and kits” (priority 2011, dated 2017):
Read-outs that look alike come from different tables or passages of the source.

Tested on: LC3-GFP/RFP HeLa cells
Assay: High-content imaging screen of LC3-GFP/RFP puncta (Cellomics ArrayScan)
Type: cell-based

| Compound | modulation of autophagy (agonist/inducer or antagonist/inhibitor) | modulation of autophagy (agonist/inducer or antagonist/inhibitor) (LC3-GFP/RFP puncta per cell, 4 hours incubation, hit = 3 standard deviations above or below mean of negative control wells) |
| --- | --- | --- |
| CC(C)n1nc(-c2cc3cc(O)ccc3[nH]2)c2c(N)ncnc21 [pp242] | stronger inducer of autophagy |  |
| CCN(CC)CCOC(=O)C1(C2CCCCC2)CCCCC1 [dicyclomine] |  | agonists or inducers of autophagy |
